# This is one part of the list.
# B1: SfaEH (Escherichia coli), Q1RDG5 (protein)
# chain: LLCRNNQTGQVFNSGDTSFRVNVSPVVQYDKSISVLDLSQLVSCQNEDSTGQNYDYLKILKGSGFSPALDTKTYGRLDFTSRPTGYARQLPLQFDLQVTEAFYQYGVWKPFPAKLYLYPAPGVFGKVINNGDLLATLYVNKFSTKGQEAGERNFTWRFYATNDVYIQTGTCRVSSNNVKVDLPSYPGGPVTVPLTVRCDQTQSVSYTLSGPVTGSGNTVFANTAASGSGGVGIQLSDNVGPVPAGQPRSLGQVGSSPVSLGLKASYALTGQASPTPGAVQSVINVTFSYN
# Legend:
# Assay in all cases: glycan array binding signal (z-score within array); higher = stronger binding
# Conditions in all cases: glycan notation: IUPAC condensed, linker removed
# [1] = biological target: Fuc(a1-2)Gal(b1-4)GlcNAc(b1-3)Gal(b1-4)GlcNAc(b1-2)Man(a1-3)[Fuc(a1-2)Gal(b1-4)GlcNAc(b1-3)Gal(b1-4)GlcNAc(b1-2)Man(a1-6)]Man(b1-4)GlcNAc(b1-4)GlcNAc
# Summary of the method: (§1)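 From the Consortium for Functional Glycomics database, 3228 arrays were curated, keeping only those whose protein sequence was available. Binding is given as a within-array Z-score averaged across arrays sharing a protein sequence and across linkers. Negative Z-scores can be read as non-binding.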
# [2] = biological target: Fuc(a1-2)Gal(b1-4)GlcNAc(b1-3)Gal(b1-4)GlcNAc(b1-3)Gal(b1-4)GlcNAc
# Summary of the method: as §1
# [3] = biological target: Fuc(a1-2)Gal(b1-4)GlcNAc(b1-3)GalNAc
# Summary of the method: as §1
# [4] = biological target: Fuc(a1-2)Gal(b1-4)GlcNAc(b1-3)[Fuc(a1-2)Gal(b1-4)GlcNAc(b1-6)]GalNAc
# Summary of the method: as §1
# [5] = biological target: Fuc(a1-2)Gal(b1-4)GlcNAc(b1-3)[Fuc(a1-3)[Gal(b1-4)]GlcNAc(b1-6)]Gal(b1-4)Glc
# Summary of the method: as §1
# [6] = biological target: Fuc(a1-2)Gal(b1-4)GlcNAc(b1-6)GalNAc
# Summary of the method: as §1
# [7] = biological target: Fuc(a1-2)Gal(b1-4)GlcNAc6S
# Summary of the method: as §1
# [8] = biological target: Fuc(a1-2)Gal(b1-4)[Fuc(a1-3)]GlcNAc
# Summary of the method: as §1
# [9] = biological target: Fuc(a1-2)Gal(b1-4)[Fuc(a1-3)]GlcNAc(b1-2)Man(a1-3)[Fuc(a1-2)Gal(b1-4)[Fuc(a1-3)]GlcNAc(b1-2)Man(a1-6)]Man(b1-4)GlcNAc(b1-4)[Fuc(a1-6)]GlcNAc
# Summary of the method: as §1
# [10] = biological target: Fuc(a1-2)Gal(b1-4)[Fuc(a1-3)]GlcNAc(b1-2)[Fuc(a1-2)Gal(b1-4)[Fuc(a1-3)]GlcNAc(b1-4)]Man(a1-3)[Fuc(a1-2)Gal(b1-4)[Fuc(a1-3)]GlcNAc(b1-2)Man(a1-6)]Man(b1-4)GlcNAc(b1-4)GlcNAc
# Summary of the method: as §1
# [11] = biological target: Fuc(a1-2)Gal(b1-4)[Fuc(a1-3)]GlcNAc(b1-3)Gal(b1-4)[Fuc(a1-3)]GlcNAc
# Summary of the method: as §1
# [12] = biological target: Fuc(a1-2)Gal(b1-4)[Fuc(a1-3)]GlcNAc(b1-3)Gal(b1-4)[Fuc(a1-3)]GlcNAc(b1-3)Gal(b1-4)[Fuc(a1-3)]GlcNAc
# Summary of the method: as §1
# [13] = biological target: Fuc(a1-2)Gal(b1-4)[Fuc(a1-3)]GlcNAc(b1-3)GalNAc
# Summary of the method: as §1
# [14] = biological target: Fuc(a1-2)Gal(b1-4)[Fuc(a1-3)]GlcNAc(b1-3)[Neu5Ac(a2-6)Gal(b1-4)GlcNAc(b1-6)]Gal(b1-4)Glc
# Summary of the method: as §1
# [15] = biological target: Fuc(a1-2)Gal3S(b1-4)GlcNAc
# Summary of the method: as §1
# [16] = biological target: Fuc(a1-2)Gal6S(b1-3)GlcNAc
# Summary of the method: as §1
# [17] = biological target: Fuc(a1-2)Gal6S(b1-3)GlcNAc6S
# Summary of the method: as §1
# Fuc(a1-2)Gal6S(b1-4)Glc = biological target: Fuc(a1-2)Gal6S(b1-4)Glc
# Summary of the method: as §1
# [18] = biological target: Fuc(a1-2)Gal6S(b1-4)Glc6S
# Summary of the method: as §1
# Fuc(a1-2)[Gal(a1-3)]Gal = biological target: Fuc(a1-2)[Gal(a1-3)]Gal
# Summary of the method: as §1
# [19] = biological target: Fuc(a1-2)[Gal(a1-3)]Gal(b1-3)GalNAc
# Summary of the method: as §1
# [20] = biological target: Fuc(a1-2)[Gal(a1-3)]Gal(b1-3)GalNAc(b1-3)Gal(a1-4)Gal(b1-4)Glc
# Summary of the method: as §1
# [21] = biological target: Fuc(a1-2)[Gal(a1-3)]Gal(b1-3)GlcNAc
# Summary of the method: as §1
# [22] = biological target: Fuc(a1-2)[Gal(a1-3)]Gal(b1-3)GlcNAc(b1-2)Man(a1-3)[Fuc(a1-2)[Gal(a1-3)]Gal(b1-3)GlcNAc(b1-2)Man(a1-6)]Man(b1-4)GlcNAc(b1-4)GlcNAc
# Summary of the method: as §1
# [23] = biological target: Fuc(a1-2)[Gal(a1-3)]Gal(b1-3)GlcNAc(b1-2)Man(a1-3)[Fuc(a1-2)[Gal(a1-3)]Gal(b1-3)GlcNAc(b1-2)Man(a1-6)]Man(b1-4)GlcNAc(b1-4)[Fuc(a1-6)]GlcNAc
# Summary of the method: as §1
# [24] = biological target: Fuc(a1-2)[Gal(a1-3)]Gal(b1-3)GlcNAc(b1-3)GalNAc
# Summary of the method: as §1
# [25] = biological target: Fuc(a1-2)[Gal(a1-3)]Gal(b1-3)GlcNAc(b1-6)GalNAc
# Summary of the method: as §1
# [26] = biological target: Fuc(a1-2)[Gal(a1-3)]Gal(b1-4)Glc
# Summary of the method: as §1
# [27] = biological target: Fuc(a1-2)[Gal(a1-3)]Gal(b1-4)GlcNAc
# Summary of the method: as §1
# [28] = biological target: Fuc(a1-2)[Gal(a1-3)]Gal(b1-4)GlcNAc(b1-2)Man
# Summary of the method: as §1
binder,measurement,setting,value
B1,glycan array binding signal (z-score),[1],0.326
same,glycan array binding signal (z-score),[2],-0.132
same,glycan array binding signal (z-score),[3],-0.983
same,glycan array binding signal (z-score),[4],-0.363
same,glycan array binding signal (z-score),[5],-0.708
same,glycan array binding signal (z-score),[6],0.53
same,glycan array binding signal (z-score),[7],-0.418
same,glycan array binding signal (z-score),[8],0.078
same,glycan array binding signal (z-score),[9],0.614
same,glycan array binding signal (z-score),[10],-0.498
same,glycan array binding signal (z-score),[11],-0.11
same,glycan array binding signal (z-score),[12],1.77
same,glycan array binding signal (z-score),[13],0.063
same,glycan array binding signal (z-score),[14],-0.301
same,glycan array binding signal (z-score),[15],-0.695
same,glycan array binding signal (z-score),[16],-1.04
same,glycan array binding signal (z-score),[17],-0.731
same,glycan array binding signal (z-score),Fuc(a1-2)Gal6S(b1-4)Glc,-0.887
same,glycan array binding signal (z-score),[18],0.747
same,glycan array binding signal (z-score),Fuc(a1-2)[Gal(a1-3)]Gal,0.472
same,glycan array binding signal (z-score),[19],-0.075
same,glycan array binding signal (z-score),[20],-1.07
same,glycan array binding signal (z-score),[21],0.11
same,glycan array binding signal (z-score),[22],-0.134
same,glycan array binding signal (z-score),[23],-0.025
same,glycan array binding signal (z-score),[24],0.137
same,glycan array binding signal (z-score),[25],0.279
same,glycan array binding signal (z-score),[26],0.531
same,glycan array binding signal (z-score),[27],0.616
same,glycan array binding signal (z-score),[28],-0.41

# As a working copy, some entries already given.
binder,measurement,setting,value
B1,glycan array binding signal (z-score),[11],-0.11
same,glycan array binding signal (z-score),[12],1.77

# From the supplement of paper PMC8728848
